This passage reports binding results from PMC4858679.

Experiment [1] concerns the target T1, Endonuclease Q from Pyrococcus furiosus (Pyrococcus furiosus (endogenous in P. furiosus cells)) (UniProt Q8U0N5).
T1 sequence: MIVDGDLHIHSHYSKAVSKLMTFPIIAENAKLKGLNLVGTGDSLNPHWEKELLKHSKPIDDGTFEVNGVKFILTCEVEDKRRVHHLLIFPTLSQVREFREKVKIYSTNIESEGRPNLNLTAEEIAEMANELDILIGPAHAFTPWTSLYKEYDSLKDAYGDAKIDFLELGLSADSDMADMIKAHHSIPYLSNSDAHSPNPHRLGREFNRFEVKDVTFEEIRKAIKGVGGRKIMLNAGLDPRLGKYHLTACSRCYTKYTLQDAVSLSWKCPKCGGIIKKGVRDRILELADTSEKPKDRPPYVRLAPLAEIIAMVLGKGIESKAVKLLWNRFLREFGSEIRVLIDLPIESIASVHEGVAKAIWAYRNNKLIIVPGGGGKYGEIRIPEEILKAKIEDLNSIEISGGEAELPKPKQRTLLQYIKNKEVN
As to the kind of experiment: co-IP; extracts from exponentially growing P. furiosus cells; antibodies raised against TkoEndoQ and PfuPCNA.

Experiment [2] concerns the target TkoPCNA1 with the mutations E143A/D147A at the interface of the protomers (Thermococcus kodakarensis) (UniProt Q5JF32). As to the kind of experiment: SEC; gel filtration of purified TkoPCNA1 proteins; 160 μM; both purified.
Experiment [3] has as its target T2, Proliferating cell nuclear antigen from Pyrococcus furiosus (Pyrococcus furiosus (endogenous in P. furiosus cells)) (UniProt O73947).
T2 sequence: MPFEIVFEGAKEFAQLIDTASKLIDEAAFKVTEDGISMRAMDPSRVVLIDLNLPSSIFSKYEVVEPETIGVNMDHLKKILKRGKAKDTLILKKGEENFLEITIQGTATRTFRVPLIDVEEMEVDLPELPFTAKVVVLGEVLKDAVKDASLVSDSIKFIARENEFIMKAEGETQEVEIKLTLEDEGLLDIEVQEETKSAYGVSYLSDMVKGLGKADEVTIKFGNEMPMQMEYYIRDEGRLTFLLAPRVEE
In words: co-IP; extracts from exponentially growing P. furiosus cells; antibodies raised against TkoEndoQ and PfuPCNA.

Experiment [4] addresses T3, Proliferating cell nuclear antigen 1 from Thermococcus kodakarensis, wild type (Thermococcus kodakarensis) (UniProt Q5JF32).
T3 sequence: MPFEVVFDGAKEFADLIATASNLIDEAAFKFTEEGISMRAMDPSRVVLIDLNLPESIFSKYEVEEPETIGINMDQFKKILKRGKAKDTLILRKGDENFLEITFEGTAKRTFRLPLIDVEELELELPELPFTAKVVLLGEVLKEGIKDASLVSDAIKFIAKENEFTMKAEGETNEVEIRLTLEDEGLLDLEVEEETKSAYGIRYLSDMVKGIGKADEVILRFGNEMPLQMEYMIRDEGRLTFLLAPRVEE
As to the kind of experiment: SPR; Biacore J; TkoPCNA1 immobilised on a CM5 chip, TkoEndoQ injected (12-800 nM, 120 s); 25 °C; 10 mM HEPES pH 7.4, 0.4 M NaCl, 0.005% Tween20; 1:1 reaction model; apparent KD; both purified.

Results are given in words; binding and its absence hold for the method and conditions named. For some of these results: Binding seen in cells or lysates may run through a third protein. Some entries that bind do so weakly or less than the wild type.

B1: Proliferating cell nuclear antigen from Pyrococcus furiosus (protein, UniProt O73947 1-249)
chain: MPFEIVFEGAKEFAQLIDTASKLIDEAAFKVTEDGISMRAMDPSRVVLIDLNLPSSIFSKYEVVEPETIGVNMDHLKKILKRGKAKDTLILKKGEENFLEITIQGTATRTFRVPLIDVEEMEVDLPELPFTAKVVVLGEVLKDAVKDASLVSDSIKFIARENEFIMKAEGETQEVEIKLTLEDEGLLDIEVQEETKSAYGVSYLSDMVKGLGKADEVTIKFGNEMPMQMEYYIRDEGRLTFLLAPRVEE
On to B1, for which the binding result in experiment [1] was “binds”.

B2: TkoPCNA1 with the mutations E143A/D147A at the interface of the protomers (protein, UniProt Q5JF32 1-249)
chain: MPFEVVFDGAKEFADLIATASNLIDEAAFKFTEEGISMRAMDPSRVVLIDLNLPESIFSKYEVEEPETIGINMDQFKKILKRGKAKDTLILRKGDENFLEITFEGTAKRTFRLPLIDVEELELELPELPFTAKVVLLGEVLKAGIKAASLVSDAIKFIAKENEFTMKAEGETNEVEIRLTLEDEGLLDLEVEEETKSAYGIRYLSDMVKGIGKADEVILRFGNEMPLQMEYMIRDEGRLTFLLAPRVEE
Take B2: the binding entry in experiment [2] is listed as “no binding (tested: 160 μM)”.

B3: Endonuclease Q from Pyrococcus furiosus (enzyme, UniProt Q8U0N5 1-424)
chain: MIVDGDLHIHSHYSKAVSKLMTFPIIAENAKLKGLNLVGTGDSLNPHWEKELLKHSKPIDDGTFEVNGVKFILTCEVEDKRRVHHLLIFPTLSQVREFREKVKIYSTNIESEGRPNLNLTAEEIAEMANELDILIGPAHAFTPWTSLYKEYDSLKDAYGDAKIDFLELGLSADSDMADMIKAHHSIPYLSNSDAHSPNPHRLGREFNRFEVKDVTFEEIRKAIKGVGGRKIMLNAGLDPRLGKYHLTACSRCYTKYTLQDAVSLSWKCPKCGGIIKKGVRDRILELADTSEKPKDRPPYVRLAPLAEIIAMVLGKGIESKAVKLLWNRFLREFGSEIRVLIDLPIESIASVHEGVAKAIWAYRNNKLIIVPGGGGKYGEIRIPEEILKAKIEDLNSIEISGGEAELPKPKQRTLLQYIKNKEVN
Regarding B3, the binding result in experiment [3] is “binds”.

B4: Endonuclease Q from Thermococcus kodakarensis with truncation of the C-terminal PIP-box-like sequence (deletion of residues 409-421) (domain or fragment, UniProt Q5JI33 1-408)
chain: MIVDADLHIHSRYSKAVSKAMTIPNLAENARFKGLEMVGTGDILNPNWEKELLKYTKKVDEGTYERNGIRFLLTTEVEDTRRVHHVLIFPNIETVREMRERLKPYSSDIESEGRPHLTLSAAEIADIANELDVLIGPAHAFTPWTSLYKEYDSLKEAYNGAKIHFLELGLSADSEMADMIKAHHKLTYLSNSDAHSPMPHRLGREFNRFEVNEATFEEIRKAILKRGRKIVLNAGLDPRLGKYHLTACSRCYTKYSLEEAKAFRWKCPKCGGRIKKGVRDRILELADTTERPKDRPPYLHLAPLAEIIAMVLGKGVETKAVRLVWERFLREFGSEIRVLVDVPVEELAKVHEEVAKAVWAYRKGKLIVISGGGGKYGEIKLPDEVRNARIEDLETIEVEVPNVEEKPK
For B4, the binding result in experiment [4] is “no binding (tested: 800 nM)”.
